Measured values: article PMC10866661
Results are given in words; binding and its absence hold for the method and conditions named. In cells and extracts the contact can be indirect. Some entries that bind do so weakly or less than the wild type. Tags and fused reporters may be left off the sequences shown.

Tests used:
[1] = biological target: T1, FLAG-tagged COPA p.C1013S (C-terminal domain mutant) (human) (UniProt P53621); assay: co-IP; HEK293T cells cotransfected with FLAG-tagged WT or mutant COPA, COPB2 and COPE; whole-cell extract 48 h after transfection incubated overnight with anti-DDK (FLAG) antibody, Protein G magnetic beads, washes with PBS 0.1% Tween-20; immunoblot of eluate and input for FLAG, COPB2 and COPE
T1 sequence: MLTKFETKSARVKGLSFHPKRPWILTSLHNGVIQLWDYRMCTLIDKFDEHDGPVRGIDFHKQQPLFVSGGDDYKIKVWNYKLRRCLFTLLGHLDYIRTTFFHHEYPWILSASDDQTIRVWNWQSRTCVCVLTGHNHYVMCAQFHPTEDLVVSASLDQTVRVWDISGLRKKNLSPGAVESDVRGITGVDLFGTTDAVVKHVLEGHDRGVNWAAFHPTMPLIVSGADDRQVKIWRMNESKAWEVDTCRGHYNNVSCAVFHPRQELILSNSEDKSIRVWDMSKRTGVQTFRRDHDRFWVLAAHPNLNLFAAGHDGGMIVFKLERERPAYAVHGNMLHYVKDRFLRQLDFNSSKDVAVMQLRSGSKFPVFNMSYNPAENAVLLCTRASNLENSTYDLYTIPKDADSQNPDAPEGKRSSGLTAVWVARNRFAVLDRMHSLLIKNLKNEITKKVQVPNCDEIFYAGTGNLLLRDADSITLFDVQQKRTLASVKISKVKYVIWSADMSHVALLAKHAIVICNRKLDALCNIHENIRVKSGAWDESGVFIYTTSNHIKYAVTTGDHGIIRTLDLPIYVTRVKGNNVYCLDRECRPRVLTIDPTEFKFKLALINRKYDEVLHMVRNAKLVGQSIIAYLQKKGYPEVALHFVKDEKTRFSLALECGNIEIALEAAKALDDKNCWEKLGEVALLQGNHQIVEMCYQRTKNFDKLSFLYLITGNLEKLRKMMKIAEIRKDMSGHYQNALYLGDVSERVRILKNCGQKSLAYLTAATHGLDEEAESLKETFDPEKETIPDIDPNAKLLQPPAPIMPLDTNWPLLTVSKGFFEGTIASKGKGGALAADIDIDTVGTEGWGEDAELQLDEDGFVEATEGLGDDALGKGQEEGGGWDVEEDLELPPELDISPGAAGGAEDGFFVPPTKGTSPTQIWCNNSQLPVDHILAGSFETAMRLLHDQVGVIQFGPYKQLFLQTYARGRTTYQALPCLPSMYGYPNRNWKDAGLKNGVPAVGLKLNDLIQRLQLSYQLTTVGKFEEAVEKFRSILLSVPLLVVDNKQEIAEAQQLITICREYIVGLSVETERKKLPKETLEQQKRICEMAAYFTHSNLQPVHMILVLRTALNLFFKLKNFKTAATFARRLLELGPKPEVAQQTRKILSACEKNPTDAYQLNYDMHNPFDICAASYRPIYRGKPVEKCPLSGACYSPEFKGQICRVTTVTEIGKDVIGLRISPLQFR

[2] = biological target: T2, FLAG-tagged wild-type coatomer protein complex subunit α (COPA) (human) (UniProt P53621); assay: as above
T2 sequence: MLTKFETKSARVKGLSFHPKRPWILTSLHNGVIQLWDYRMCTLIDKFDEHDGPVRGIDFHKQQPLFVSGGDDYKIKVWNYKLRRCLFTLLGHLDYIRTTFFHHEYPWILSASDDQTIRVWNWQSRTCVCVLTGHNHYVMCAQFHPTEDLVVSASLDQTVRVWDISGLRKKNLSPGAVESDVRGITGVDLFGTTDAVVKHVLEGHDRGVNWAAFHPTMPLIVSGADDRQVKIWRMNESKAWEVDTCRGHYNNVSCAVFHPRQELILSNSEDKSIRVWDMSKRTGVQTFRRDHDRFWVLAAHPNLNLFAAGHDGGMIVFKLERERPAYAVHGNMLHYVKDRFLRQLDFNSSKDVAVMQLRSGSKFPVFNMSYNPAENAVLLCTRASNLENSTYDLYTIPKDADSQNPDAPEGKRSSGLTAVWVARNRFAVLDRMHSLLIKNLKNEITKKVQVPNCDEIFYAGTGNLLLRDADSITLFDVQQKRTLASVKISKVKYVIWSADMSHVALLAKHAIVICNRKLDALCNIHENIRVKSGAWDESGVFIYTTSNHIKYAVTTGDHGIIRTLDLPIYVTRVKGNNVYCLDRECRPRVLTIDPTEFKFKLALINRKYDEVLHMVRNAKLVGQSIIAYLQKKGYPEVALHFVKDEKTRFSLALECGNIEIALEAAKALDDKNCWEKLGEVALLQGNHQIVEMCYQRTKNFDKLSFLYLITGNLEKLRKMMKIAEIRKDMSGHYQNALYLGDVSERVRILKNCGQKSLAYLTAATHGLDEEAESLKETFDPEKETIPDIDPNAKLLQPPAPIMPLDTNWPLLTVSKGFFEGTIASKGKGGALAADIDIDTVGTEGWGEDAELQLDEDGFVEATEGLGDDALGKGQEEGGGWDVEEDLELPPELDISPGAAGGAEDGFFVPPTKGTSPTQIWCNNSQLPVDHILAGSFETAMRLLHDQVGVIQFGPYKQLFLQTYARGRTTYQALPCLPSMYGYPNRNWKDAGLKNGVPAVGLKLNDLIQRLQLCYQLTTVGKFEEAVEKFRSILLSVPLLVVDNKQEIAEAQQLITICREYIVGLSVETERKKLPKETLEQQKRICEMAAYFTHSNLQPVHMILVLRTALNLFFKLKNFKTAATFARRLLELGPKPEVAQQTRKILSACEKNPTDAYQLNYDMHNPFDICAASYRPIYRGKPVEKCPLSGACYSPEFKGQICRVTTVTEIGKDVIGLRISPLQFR

B1: COPB2 (protein, UniProt P35606 1-906)
chain: MPLRLDIKRKLTARSDRVKSVDLHPTEPWMLASLYNGSVCVWNHETQTLVKTFEVCDLPVRAAKFVARKNWVVTGADDMQIRVFNYNTLERVHMFEAHSDYIRCIAVHPTQPFILTSSDDMLIKLWDWDKKWSCSQVFEGHTHYVMQIVINPKDNNQFASASLDRTIKVWQLGSSSPNFTLEGHEKGVNCIDYYSGGDKPYLISGADDRLVKIWDYQNKTCVQTLEGHAQNVSCASFHPELPIIITGSEDGTVRIWHSSTYRLESTLNYGMERVWCVASLRGSNNVALGYDEGSIIVKLGREEPAMSMDANGKIIWAKHSEVQQANLKAMGDAEIKDGERLPLAVKDMGSCEIYPQTIQHNPNGRFVVVCGDGEYIIYTAMALRNKSFGSAQEFAWAHDSSEYAIRESNSIVKIFKNFKEKKSFKPDFGAESIYGGFLLGVRSVNGLAFYDWDNTELIRRIEIQPKHIFWSDSGELVCIATEESFFILKYLSEKVLAAQETHEGVTEDGIEDAFEVLGEIQEIVKTGLWVGDCFIYTSSVNRLNYYVGGEIVTIAHLDRTMYLLGYIPKDNRLYLGDKELNIISYSLLVSVLEYQTAVMRRDFSMADKVLPTIPKEQRTRVAHFLEKQGFKQQALTVSTDPEHRFELALQLGELKIAYQLAVEAESEQKWKQLAELAISKCQFGLAQECLHHAQDYGGLLLLATASGNANMVNKLAEGAERDGKNNVAFMSYFLQGKVDACLELLIRTGRLPEAAFLARTYLPSQVSRVVKLWRENLSKVNQKAAESLADPTEYENLFPGLKEAFVVEEWVKETHADLWPAKQYPLVTPNEERNVMEEGKDFQPSRSTAQQELDGKPASPTPVIVASHTANKEEKSLLELEVDLDNLELEDIDTTDINLDEDILDD
- binding [1]: binds
- binding [2]: binds
